# According to PubChem BioAssay AID504444 (National Center for Advancing Translational Sciences (NCATS), 2011):
# In all, about 360,000 compounds went through this assay and about 7,500 (2.1%) were called active. The inconclusive results got no clear call from the source; some entries with a clear call stand among them for comparison. Calls follow the shape of the dose curve; as a rule, active = well fitted inhibition curve with a large enough effect; inconclusive = small, poorly fitted or top-dose-only effect, or effect the other way; inactive = flat fitted curve, though single readings scatter. Potencies beside an inconclusive call are fits to weak or partial responses and may not hold up.
# Assay: Nrf2 qHTS screen for inhibitors; also: nearly all actives have a fitted effect of over 60% in size
# Settings: A549 ARE-Fluc reporter, luciferase luminescence, 18-24 h; activity change, negative = inhibition: at 46 µM (top of the series)
# Summary of the method: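 Reporter: ARE-Fluc in A549. Exposure: 18-24 h, 37 °C, 5% CO2, 5% FBS OPTI-MEM. Readouts: fluorescent cytotoxicity (CellTiter-Fluor), then luminescent Nrf2 signal after BugLite.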
# % is scaled to controls: 0 for no effect and ±100 for the full control effect; potency is read from the fitted curve at half-maximal effect.
Compound,Potency,"activity change, negative = inhibition"
O=C(CNC(=O)c1ccc2c(c1)OCCO2)N/N=C/c1ccc([N+](=O)[O-])cc1,"inconclusive: 23.1 µM [falling, partial curve]",–
O=C(Nc1ccc(N2CCOCC2)c(Cl)c1)c1ccc2c(c1)OCCO2,"inconclusive: 32.6 µM [falling, partial curve, poor fit]",–
COc1ccc(Nc2c3c(nc4ccccc24)CCCC3)cc1OC,–,inactive: -18.3%
CCOC(=O)c1c(C(C)(C)C)oc2ccc(OCC#N)cc12,"inconclusive: 20.6 µM [falling, single point]",–
COc1ccccc1CNc1ccc(-c2nc(-c3ccccn3)no2)cc1[N+](=O)[O-],–,inactive: 7.36%
O=C(CSCc1ccc(Br)cc1)N=Nc1c(O)[nH]c2ccccc12,"inconclusive: 23.1 µM [falling, single point]",–
Cc1ccc(NCC(=O)N/N=C/c2c[nH]c3ccccc23)cc1,"inconclusive: 6.51 µM [activator, partial curve, poor fit]",–
CCOc1ccccc1N1CCN(C(=O)c2ccc(S(=O)(=O)Nc3ccccc3)cc2)CC1,"inconclusive: 25.9 µM [falling, single point]",–
O=C(NNC(=S)Nc1ccc(C(=O)O)c(O)c1)c1ccncc1,"inconclusive: 18.4 µM [falling, single point]",–
O=C(Cc1ccc(NC(=O)N2CCCCc3ccccc32)cc1)NCc1ccccc1Br,"inconclusive: 16.4 µM [falling, single point]",–
Cn1cc(C(=O)c2ccc(Cl)cc2Cl)cc1C(=O)N/N=C(\N)COc1ccccc1,"inconclusive: 25.9 µM [falling, partial curve, poor fit]",–
O=c1[nH]c2cc3c(cc2cc1C(c1nnnn1Cc1ccccc1)N1CCN2CCCC2C1)OCCO3 (centres undefined),–,inactive: 7.81%
O=C(CSc1nnc(-c2ccccn2)o1)Nc1ccccc1,"inconclusive: 2.59 µM [activator, full curve]",–
CCCCN(CC)CCCNC(=O)CC1Nc2ccccc2NC1=O (centres undefined),–,inactive: -6.48%
CCc1ccccc1Nc1nn2c(=O)c3ccc(C(=O)NC4CCC(C)CC4)cc3nc2s1 (centres undefined),–,inactive: 3.08%
COc1ccccc1C(=O)Nc1ccc(OCC(=O)N2CCCCC2C)cc1 (centres undefined),"inconclusive: 0.58 µM [falling, partial curve, poor fit]",–
Cc1oc(-c2ccccc2)nc1Cn1c(SCc2cccc(C(F)(F)F)c2)nc2cccnc21,active: 25.9 µM,–
CCOc1ccccc1N1CCN(S(=O)(=O)c2cc(C)ccc2OC)CC1,"inconclusive: 36.6 µM [falling, partial curve, poor fit]",–
O=C(Nc1ccccc1)Nc1ccccc1C(=O)NCc1ccccc1,"inconclusive: 17.8 µM [activator, partial curve, poor fit]",–

# A different layout for part of the listing above.
Compound | Potency | activity change, negative = inhibition
CCCCN(CC)CCCNC(=O)CC1Nc2ccccc2NC1=O (centres undefined) | – | inactive: -6.48%
CCc1ccccc1Nc1nn2c(=O)c3ccc(C(=O)NC4CCC(C)CC4)cc3nc2s1 (centres undefined) | – | inactive: 3.08%
